# Test results reported in the supplement of paper PMC11438910.
# Some of the results follow. Only a few entries rise above the background.
# B1: 4-173.2 (protein)
# chain 1: QLQLQESGPGLVKPSETLSLTCAVSGGSINSNYWSWIRQPPGKGLDWIGRISGSGGSTDYNPSLKSRVTISTDTSKTQFSLKLRSVTAADTAVYYCGRGSYQIDYWGQGILVTVSS
# chain 2: QAALTQPPSMSGSPGQSVTISCTGTSSDIGGYNRVSWYQQYPGKAPKLMIYEVSKRPSGVSDRFSGSKSGNTASLTISGLQAADEADYYCSSYAGSKALFGGGTRLTVL
# Assays:
# Experiment in all cases: fluorescence intensity of antibody binding to polysaccharide-coupled beads; higher = stronger binding
# [1] = target: pneumococcal polysaccharide Pn35C
# [2] = target: pneumococcal polysaccharide Pn35F
# [3] = target: pneumococcal polysaccharide Pn36
# [4] = target: pneumococcal polysaccharide Pn37
# [5] = target: pneumococcal polysaccharide Pn38
# [6] = target: pneumococcal polysaccharide Pn39
# [7] = target: pneumococcal polysaccharide Pn4
# [8] = target: pneumococcal polysaccharide Pn40
# [9] = target: pneumococcal polysaccharide Pn41A
# [10] = target: pneumococcal polysaccharide Pn41F
# [11] = target: pneumococcal polysaccharide Pn42
# [12] = target: pneumococcal polysaccharide Pn43
# [13] = antibody concentration 2337.65 ng/mL
# [14] = antibody concentration 12500 ng/mL
# [15] = antibody concentration 0.1 ng/mL
# [16] = antibody concentration 0.534724 ng/mL
# [17] = antibody concentration 2.8593 ng/mL
# [18] = antibody concentration 15.2894 ng/mL
# [19] = antibody concentration 81.7561 ng/mL
# [20] = antibody concentration 437.17 ng/mL
binder,measurement,setting,value
B1,fluorescence intensity,[1]; [13],22.5 MFI
same,fluorescence intensity,[1]; [14],30 MFI
same,fluorescence intensity,[2]; [15],21 MFI
same,fluorescence intensity,[2]; [16],23.5 MFI
same,fluorescence intensity,[2]; [17],16.8 MFI
same,fluorescence intensity,[2]; [18],20 MFI
same,fluorescence intensity,[2]; [19],19.5 MFI
same,fluorescence intensity,[2]; [20],17.2 MFI
same,fluorescence intensity,[2]; [13],19 MFI
same,fluorescence intensity,[2]; [14],30 MFI
same,fluorescence intensity,[3]; [15],16.5 MFI
same,fluorescence intensity,[3]; [16],15.5 MFI
same,fluorescence intensity,[3]; [17],15.5 MFI
same,fluorescence intensity,[3]; [18],17 MFI
same,fluorescence intensity,[3]; [19],17 MFI
same,fluorescence intensity,[3]; [20],17 MFI
same,fluorescence intensity,[3]; [13],21 MFI
same,fluorescence intensity,[3]; [14],77.2 MFI
same,fluorescence intensity,[4]; [15],25.5 MFI
same,fluorescence intensity,[4]; [16],26.5 MFI
same,fluorescence intensity,[4]; [17],26 MFI
same,fluorescence intensity,[4]; [18],27 MFI
same,fluorescence intensity,[4]; [19],28.5 MFI
same,fluorescence intensity,[4]; [20],32.5 MFI
same,fluorescence intensity,[4]; [13],74.2 MFI
same,fluorescence intensity,[4]; [14],550 MFI
same,fluorescence intensity,[5]; [15],25.2 MFI
same,fluorescence intensity,[5]; [16],27 MFI
same,fluorescence intensity,[5]; [17],26 MFI
same,fluorescence intensity,[5]; [18],25 MFI
same,fluorescence intensity,[5]; [19],24.2 MFI
same,fluorescence intensity,[5]; [20],26.2 MFI
same,fluorescence intensity,[5]; [13],29.5 MFI
same,fluorescence intensity,[5]; [14],55.5 MFI
same,fluorescence intensity,[6]; [15],19 MFI
same,fluorescence intensity,[6]; [16],19.2 MFI
same,fluorescence intensity,[6]; [17],17.5 MFI
same,fluorescence intensity,[6]; [18],17.5 MFI
same,fluorescence intensity,[6]; [19],20.2 MFI
same,fluorescence intensity,[6]; [20],20.5 MFI
same,fluorescence intensity,[6]; [13],23.5 MFI
same,fluorescence intensity,[6]; [14],80.5 MFI
same,fluorescence intensity,[7]; [15],18.2 MFI
same,fluorescence intensity,[7]; [16],18.5 MFI
same,fluorescence intensity,[7]; [17],19.5 MFI
same,fluorescence intensity,[7]; [18],18.2 MFI
same,fluorescence intensity,[7]; [19],18.2 MFI
same,fluorescence intensity,[7]; [20],24.5 MFI
same,fluorescence intensity,[7]; [13],30.5 MFI
same,fluorescence intensity,[7]; [14],43 MFI
same,fluorescence intensity,[8]; [15],14.8 MFI
same,fluorescence intensity,[8]; [16],16.8 MFI
same,fluorescence intensity,[8]; [17],16 MFI
same,fluorescence intensity,[8]; [18],17 MFI
same,fluorescence intensity,[8]; [19],18 MFI
same,fluorescence intensity,[8]; [20],18.5 MFI
same,fluorescence intensity,[8]; [13],25.5 MFI
same,fluorescence intensity,[8]; [14],120 MFI
same,fluorescence intensity,[9]; [15],23.5 MFI
same,fluorescence intensity,[9]; [16],22 MFI
same,fluorescence intensity,[9]; [17],25 MFI
same,fluorescence intensity,[9]; [18],23.5 MFI
same,fluorescence intensity,[9]; [19],24 MFI
same,fluorescence intensity,[9]; [20],24.8 MFI
same,fluorescence intensity,[9]; [13],24.2 MFI
same,fluorescence intensity,[9]; [14],30 MFI
same,fluorescence intensity,[10]; [15],13.5 MFI
same,fluorescence intensity,[10]; [16],13.5 MFI
same,fluorescence intensity,[10]; [17],13 MFI
same,fluorescence intensity,[10]; [18],12.5 MFI
same,fluorescence intensity,[10]; [19],13.8 MFI
same,fluorescence intensity,[10]; [20],15 MFI
same,fluorescence intensity,[10]; [13],16 MFI
same,fluorescence intensity,[10]; [14],22 MFI
same,fluorescence intensity,[11]; [15],11.5 MFI
same,fluorescence intensity,[11]; [16],11 MFI
same,fluorescence intensity,[11]; [17],12 MFI
same,fluorescence intensity,[11]; [18],12 MFI
same,fluorescence intensity,[11]; [19],12.5 MFI
same,fluorescence intensity,[11]; [20],13 MFI
same,fluorescence intensity,[11]; [13],13.5 MFI
same,fluorescence intensity,[11]; [14],40.2 MFI
same,fluorescence intensity,[12]; [15],15 MFI
same,fluorescence intensity,[12]; [16],16 MFI
same,fluorescence intensity,[12]; [17],15.5 MFI
same,fluorescence intensity,[12]; [18],15.5 MFI
same,fluorescence intensity,[12]; [19],18 MFI
same,fluorescence intensity,[12]; [20],19 MFI
same,fluorescence intensity,[12]; [13],39.5 MFI
same,fluorescence intensity,[12]; [14],292 MFI

# An excerpt of these results, as tab-separated lines:
binder	measurement	setting	value
B1	fluorescence intensity	[3]; [13]	21 MFI
same	fluorescence intensity	[3]; [14]	77.2 MFI
same	fluorescence intensity	[4]; [15]	25.5 MFI
same	fluorescence intensity	[4]; [16]	26.5 MFI
same	fluorescence intensity	[4]; [17]	26 MFI
same	fluorescence intensity	[4]; [18]	27 MFI
same	fluorescence intensity	[4]; [19]	28.5 MFI
same	fluorescence intensity	[4]; [20]	32.5 MFI
same	fluorescence intensity	[4]; [13]	74.2 MFI
same	fluorescence intensity	[4]; [14]	550 MFI
same	fluorescence intensity	[5]; [15]	25.2 MFI
same	fluorescence intensity	[5]; [16]	27 MFI
same	fluorescence intensity	[5]; [17]	26 MFI
same	fluorescence intensity	[5]; [18]	25 MFI
same	fluorescence intensity	[5]; [19]	24.2 MFI
same	fluorescence intensity	[5]; [20]	26.2 MFI
same	fluorescence intensity	[5]; [13]	29.5 MFI
same	fluorescence intensity	[5]; [14]	55.5 MFI
same	fluorescence intensity	[6]; [15]	19 MFI
